Results published in US10100082B2, “Hexapeptide for neuroprotection against a β toxicity” (Council of Scientific and Industrial Research, priority 2016, dated 2018).
“Also recorded” adds a separate entry of the source. Not every detail of the peptide structures is certain; ends, links or a residue may be inferred.

Amino acid sequences for entries named in this document (tags omitted). Residues count along the entry.
UniProt P05067, 672-713 limits assumed: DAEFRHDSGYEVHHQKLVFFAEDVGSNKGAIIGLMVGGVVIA

Tests used:
Aβ42 peptide = target: T1, Aβ42 peptide (Homo sapiens, UniProt P05067); experiment: Inhibition of Aβ fibrillation by TEM; type: biochemical; conditions: co-incubation of Aβ42 peptide and NV for 7 days at 37° C.
T1 construct: 1 μM solution of Aβ42 alone

[1] = system: neuronally differentiated PC12 cells; experiment: Neuroprotection against anti-NGF toxicity (NGF deprivation), intact nuclear counting; type: cell-based, rat
Method: On the fifth day they were treated overnight with anti-NGF along with different doses of inhibitor NV (FIG. 4d). […] The cells were observed under the microscope on the day following treatment; survival was assessed by intact nuclear counting assay (FIG. 4d).
Rat pheochromocytoma cells (PC12) cells were cultured as described previously (ESI) in RPMI medium supplemented with 10% heat-inactivated horse serum (HS) and 5% heat-inactivated fetal bovine serum. Neuronal differentiation of these cells was induced by NGF (100 ng/mL) in medium containing 1% horse serum for 6 days before the treatment, as previously described.
The cell viability was checked by the intact nuclear counting method. This assay was performed as described previously. In brief, a detergent containing the buffer that dissolved only the plasma membrane was added to the cells, the nuclear membrane thus remained intact. The intact nuclei were then counted on a haemocytometer under a light microscope. The number of live cells was expressed as percentage of the total cell population.

H-NAVSIQ-NH2 [NV, NH2-NAVSIQ-NH2]
inhibition of Aβ fibril formation (TEM morphology) (Aβ42 peptide): inhibits amyloid fibrillations in vitro; also recorded: nano-vesicles with very short fibril like structure | neuronal morphology after NGF deprivation ([1]; 5 μM NV): retained overall neuronal morphology including neuronal processes | protection compared with NQ (positive control) ([1]; 5 μM NV versus 5 μM NQ, anti-NGF treatment): better protection to neuronal PC12 cells than NQ; also recorded: higher protection than inhibitor NQ | protection of cells against NGF deprivation (cell survival) ([1]; 5 μM NV, anti-NGF treatment, 20 h): significant protection; also recorded: increased survival with retention of neuronal processes | protection of cells against NGF deprivation (cell survival) ([1]; higher concentrations (10 and 20 μM NV), anti-NGF treatment): did not provide better protection
